Assay results: paper PMC11490574
Construct, isoform or probe ends are uncertain for at least one entry. For some of these results: A weaker result is weaker than the reference pair of the same experiment. For some of these results: Protein sequences can lack the tags named with them.

Amino acid sequences for entries named in this document (tags omitted). A change or cut given only in a name is not applied to a line headed by its entry. Residues count along the entry.
UniProt Q9NZI8, 195-343: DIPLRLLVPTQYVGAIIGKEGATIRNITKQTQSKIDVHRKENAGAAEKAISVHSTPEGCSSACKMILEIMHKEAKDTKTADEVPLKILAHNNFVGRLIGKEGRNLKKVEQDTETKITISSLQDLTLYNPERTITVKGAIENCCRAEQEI
UniProt Q9NZI8, 2-156: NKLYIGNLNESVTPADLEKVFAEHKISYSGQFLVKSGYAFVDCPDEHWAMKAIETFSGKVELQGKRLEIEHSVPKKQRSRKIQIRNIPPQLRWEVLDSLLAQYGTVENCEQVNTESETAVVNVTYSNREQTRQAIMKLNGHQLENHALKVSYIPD

Assays:
IGF2BP1 linker 1 S181E = target: T1, IGF2BP1 linker 1 S181E (UniProt Q9NZI8); assay: NMR HSQC titration; details: recombinant protein; protein details: His-SUMO removed by SENP
T1 sequence (looked up, limits assumed): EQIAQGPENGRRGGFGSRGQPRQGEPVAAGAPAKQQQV

[1] = target: IGF2BP1 linker 1 wild-type (UniProt Q9NZI8); assay: NMR HSQC titration; details: recombinant protein; protein details: His-SUMO removed by SENP
IGF2BP1 KH1-2 = IGF2BP1 KH1-2 (UniProt Q9NZI8); assay: fluorescence anisotropy; details: FA: 25 mM HEPES 7.3, 150 mM NaCl, […] Tween 20, 10 ug/mL heparin, 2 mM EDTA, 0.5 mM TCEP, 10 nM RNA, 20 C; recombinant protein; protein details: N-terminal His6 retained; label: 5'-fluorescein
IGF2BP1 RRM1-2 = IGF2BP1 RRM1-2 (UniProt Q9NZI8); assay: fluorescence anisotropy; details: text: very low affinity, printed '< 100 uM'; FA: 25 mM HEPES 7.3, 150 mM NaCl, […] Tween 20, 10 ug/mL heparin, 2 mM EDTA, 0.5 mM TCEP, 10 nM RNA, 20 C; recombinant protein; protein details: His removed by 3C; label: 5'-fluorescein

**Q.** Does GUGACAUGUC [XBP1 10 nt] bind (IGF2BP1 linker 1 S181E)?
**A.** Result: binds more weakly

**Q.** Does GUGACAUGUC [XBP1 10 nt] bind [1]?
**A.** Result: binds more weakly

**Q.** For “GUGACAUGUCCUCUCUGCUUGGUGUAAACCAUUCUU [XBP1 36 nt]”, which half-maximal binding (IGF2BP1 KH1-2) is on record?
**A.** Its half-maximal binding is over 15 µM.

**Q.** Does “GUGACAUGUCCUCUCUGCUUGGUGUAAACCAUUCUU [XBP1 36 nt]” bind (IGF2BP1 RRM1-2)?
**A.** Result: binds more weakly

**Q.** Does UGUGUGUGUGUGUGUGUGUGUGUG [12xUG] bind (IGF2BP1 linker 1 S181E)?
**A.** Result: binds more weakly

**Q.** With “ACCGGACUGUUACCAACACCCACACCCC [ACTB 28 nt]” as the sequence, how does the half-maximal binding (IGF2BP1 KH1-2) read?
**A.** The half-maximal binding was over 15 µM.

**Q.** Does “ACCGGACUGUUACCAACACCCACACCCC [ACTB 28 nt]” bind (IGF2BP1 RRM1-2)?
**A.** Result: binds more weakly
